The source of these data is article PMC7319343.

By UniProt entry, the sequences of proteins in these tests, tags left out.
UniProt P17325, whole entry: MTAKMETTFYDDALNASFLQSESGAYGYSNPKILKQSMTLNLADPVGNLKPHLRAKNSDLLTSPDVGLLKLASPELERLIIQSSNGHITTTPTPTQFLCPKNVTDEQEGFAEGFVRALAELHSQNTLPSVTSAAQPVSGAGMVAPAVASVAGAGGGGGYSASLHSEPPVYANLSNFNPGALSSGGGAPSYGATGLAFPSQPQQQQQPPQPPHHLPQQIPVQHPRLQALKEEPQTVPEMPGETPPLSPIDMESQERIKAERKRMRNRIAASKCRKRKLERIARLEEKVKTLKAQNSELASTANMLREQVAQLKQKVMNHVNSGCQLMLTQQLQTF

The exact form of at least one protein or probe is not confirmed. Where cells or extracts were used, other partners may take part. Negatives hold for the conditions tested.

In this data set the target is c-JUN (UniProt P17325). Briefly: competition with a labelled probe. As to conditions: 100-fold excess unlabeled vs labeled CRE probe, did not diminish complex; 10 min preincubation then 30 min at 25 C with DIG probe; 4% PAGE in 0.5x TBE, 100 V, 70 min; protein in an extract; label: none (unlabeled competitor).

“GGACTTCTTGGAATTAAGGGA (double strand) [STAT5B-binding probe]”: the binding result is on record as “no binding”.
